The values below come from paper PMC3986390.

Amino acid sequences for entries named in this document (tags omitted).
UniProt P11142: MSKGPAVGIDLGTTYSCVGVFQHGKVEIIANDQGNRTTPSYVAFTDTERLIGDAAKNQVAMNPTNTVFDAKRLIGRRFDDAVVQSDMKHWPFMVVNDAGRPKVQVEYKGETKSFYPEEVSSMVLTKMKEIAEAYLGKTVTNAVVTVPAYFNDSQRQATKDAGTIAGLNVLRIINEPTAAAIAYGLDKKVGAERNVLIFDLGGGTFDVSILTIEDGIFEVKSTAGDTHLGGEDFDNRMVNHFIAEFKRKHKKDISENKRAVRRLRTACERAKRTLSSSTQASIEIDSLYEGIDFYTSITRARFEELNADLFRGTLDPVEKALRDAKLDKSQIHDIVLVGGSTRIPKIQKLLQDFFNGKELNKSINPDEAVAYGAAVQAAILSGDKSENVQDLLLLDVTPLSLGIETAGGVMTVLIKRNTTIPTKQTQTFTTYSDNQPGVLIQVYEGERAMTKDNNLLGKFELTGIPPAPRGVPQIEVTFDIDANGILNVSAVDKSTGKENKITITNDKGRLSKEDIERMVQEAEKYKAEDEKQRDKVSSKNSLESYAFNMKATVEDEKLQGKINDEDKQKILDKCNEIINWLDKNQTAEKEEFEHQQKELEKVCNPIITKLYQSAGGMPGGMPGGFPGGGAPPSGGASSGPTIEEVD

Positions count from the first letter of the chain named. No constants are given. Whether binding was seen depends on the method and setting. Binding seen in cells or lysates may run through a third protein. Some binding calls cover weakened binding; strength is not graded here. Tags and fused reporters may be left off the sequences shown.

In assay [1] the target is T1, HA-tagged DNAJB12 H138Q J-domain mutant (human) (UniProt Q9NXW2).
T1 sequence: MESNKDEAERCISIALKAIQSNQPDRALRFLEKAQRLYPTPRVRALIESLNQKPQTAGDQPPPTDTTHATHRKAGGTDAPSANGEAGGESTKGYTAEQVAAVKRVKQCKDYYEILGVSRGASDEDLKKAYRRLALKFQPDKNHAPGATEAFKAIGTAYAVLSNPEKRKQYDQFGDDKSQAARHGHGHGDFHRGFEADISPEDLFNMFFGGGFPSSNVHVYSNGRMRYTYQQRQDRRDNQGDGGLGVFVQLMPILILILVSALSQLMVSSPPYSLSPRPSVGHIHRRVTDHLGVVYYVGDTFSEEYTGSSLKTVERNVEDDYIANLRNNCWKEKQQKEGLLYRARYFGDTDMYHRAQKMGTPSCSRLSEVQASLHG
Put plainly: co-IP; HeLa cells treated with 1 mM DSP cross-linker in PBS for two hours at 4°C, RIPA extracts, immunoprecipitated with anti-B12 monoclonal antibody and protein A/G beads, cross-links reversed, immunoblotted with anti-Hsc70 and anti-HA. In general terms: Immunoblotting shows a protein as a band on a membrane.

In assay [2] the target is T2, wild-type HA-tagged DNAJB12 (human) (UniProt Q9NXW2).
T2 sequence: T1 sequence with Q138H
Described as above.

On to Hsc70 (from UniProt P11142 1-646), for which the results for the binding entry in assay [1] and in assay [2] were “no binding” and “binds”, respectively.
